The other results are listed elsewhere or left out. Repeats are few or missing, and single values can be far off.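 Cells were imaged in 1,536-well plates, and nuclei stained with an antibody against cleaved PARP were counted against all DNA-stained nuclei to give the apoptosis fraction. Screening doses were chosen to leave most cells alive, and resting and induced cleaved-PARP levels differ strongly between cell lines.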
Experiments:
Test in all cases: cleaved PARP positive nuclei fraction relative to DMSO control; melanoma cells; higher = more apoptosis
Details in all cases: library dose: low library concentration; 72 h
[1] = system: 501Mel
[2] = system: A101D
[3] = system: A2058
[4] = system: A375
[5] = system: C32
[6] = system: CBRC008 (line from a melanoma biopsy)
[7] = system: CBRC014 (line from a melanoma biopsy)
[8] = system: CBRC016 (line from a melanoma biopsy)
[9] = system: CBRC017 (line from a melanoma biopsy)
[10] = system: CBRC034 (line from a melanoma biopsy)
[11] = system: COLO792
[12] = system: COLO800
[13] = system: COLO829
[14] = system: G361
[15] = system: IPC-298
[16] = system: IST-MEL1
[17] = system: LB2518-MEL
[18] = system: LOXIMVI
[19] = system: MEL-HO

Row | SMILES | cleaved PARP positive nuclei fraction [1] | cleaved PARP positive nuclei fraction [2] | cleaved PARP positive nuclei fraction [3] | cleaved PARP positive nuclei fraction [4] | cleaved PARP positive nuclei fraction [5] | cleaved PARP positive nuclei fraction [6] | cleaved PARP positive nuclei fraction [7] | cleaved PARP positive nuclei fraction [8] | cleaved PARP positive nuclei fraction [9] | cleaved PARP positive nuclei fraction [10] | cleaved PARP positive nuclei fraction [11] | cleaved PARP positive nuclei fraction [12] | cleaved PARP positive nuclei fraction [13] | cleaved PARP positive nuclei fraction [14] | cleaved PARP positive nuclei fraction [15] | cleaved PARP positive nuclei fraction [16] | cleaved PARP positive nuclei fraction [17] | cleaved PARP positive nuclei fraction [18] | cleaved PARP positive nuclei fraction [19]
1 | CCCCCCCCCCCCCCCCCCOP(=O)([O-])OC1CC[N+](C)(C)CC1 [Perifosine] + CC(=O)c1c(C)c2cnc(Nc3ccc(N4CCNCC4)cn3)nc2n(C2CCCC2)c1=O [palbociclib] (first compound 0.4 µM, partner dose 0.04 µM) | 1040% | 324% | 113% | 606% | 156% | 68.7% | 105% | 61.9% | 92.8% | 61.2% | 113% | 98.6% | 61.5% | 83.8% | 93.5% | 68.1% | 94.8% | 67.5% | 63.1%
2 | CCCCCCCCCCCCCCCCCCOP(=O)([O-])OC1CC[N+](C)(C)CC1 [Perifosine] + C[C@@H](N)c1ccc(C(=O)Nc2ccnc3[nH]ccc23)cc1 [RKI983] (first compound 0.4 µM, partner dose 0.4 µM) | 76.8% | 131% | 285% | 421% | 170% | 94.2% | 115% | 174% | 88.5% | 82.7% | 111% | 77.8% | 93% | 92.6% | 83.5% | 61.6% | 86.1% | 165% | 135%
3 | Cc1ccc(Nc2nccc(N(C)c3ccc4c(C)n(C)nc4c3)n2)cc1S(N)(=O)=O [Pazopanib] + Nc1cccc2c1CN(C1CCC(=O)NC1=O)C2=O [lenalidomide] (first compound 0.4 µM, partner dose 1 µM) | 69.1% | 95.5% | 98.4% | 177% | 37.1% | 87.3% | 123% | 388% | 71.9% | 34.6% | 91.1% | 71.2% | 127% | 97.8% | 105% | 56.9% | 115% | 272% | 80.7%
4 | O=C(/C=C/c1cccnc1)NCCCCC1CCN(C(=O)c2ccccc2)CC1 + CC(C)C[C@H](NC(=O)[C@H](Cc1ccccc1)NC(=O)c1cnccn1)B(O)O [Bortezomib] (first compound 0.01 µM, partner dose 0.001 µM) | 108% | 111% | 102% | 187% | 85.4% | 2130% | 122% | 487% | 444% | 693% | 504% | 270% | 327% | 5370% | 577% | 131% | 212% | 110% | 276%
5 | CC[C@]1(O)C[C@H]2CN(CCc3c([nH]c4ccccc34)[C@@](C(=O)OC)(c3cc4c(cc3OC)N(C=O)[C@H]3[C@@](O)(C(=O)OC)[C@H](OC(C)=O)[C@]5(CC)C=CCN6CC[C@]43[C@@H]65)C2)C1 [vincristine] + COc1ccc(C2=N[C@@H](c3ccc(Cl)cc3)[C@@H](c3ccc(Cl)cc3)N2C(=O)N2CCNC(=O)C2)c(OC(C)C)c1 [Nutlin-3] (first compound 0.0001 µM, partner dose 0.1 µM) | 199% | 236% | 949% | 529% | 109% | 122% | 107% | 95.6% | 114% | 188% | 85% | 183% | 100% | 199% | 43.1% | 72.3% | 58.6% | 333% | 155%
6 | Cc1cn(-c2cc(NC(=O)c3ccc(C)c(Nc4nccc(-c5cccnc5)n4)c3)cc(C(F)(F)F)c2)cn1 [nilotinib] + C#Cc1cccc(Nc2ncnc3cc(OCCOC)c(OCCOC)cc23)c1 [erlotinib] (first compound 0.2 µM, partner dose 0.8 µM) | 95.2% | 177% | 130% | 117% | 86.4% | 127% | 96.3% | 96.9% | 125% | 44.3% | 82.3% | 143% | 390% | 115% | 92.4% | 31.4% | 95.1% | 47.9% | 128%
7 | Cc1cn(-c2cc(NC(=O)c3ccc(C)c(Nc4nccc(-c5cccnc5)n4)c3)cc(C(F)(F)F)c2)cn1 [nilotinib] + COCC[n+]1c2c(n(Cc3cnccn3)c1C)C(=O)c1ccccc1C2=O [YM155] (first compound 0.2 µM, partner dose 0.0004 µM) | 95.9% | 107% | 98.3% | 116% | 289% | 404% | 102% | 196% | 102% | 33.6% | 120% | 26.2% | 86.2% | 78.7% | 89.4% | 70.2% | 102% | 33.3% | 119%
8 | COc1cc([C@@H]2c3cc4c(cc3[C@@H](O[C@@H]3O[C@@H]5CO[C@@H](C)O[C@H]5[C@H](O)[C@H]3O)[C@H]3COC(=O)[C@H]23)OCO4)cc(OC)c1O [etoposide] + COCC[n+]1c2c(n(Cc3cnccn3)c1C)C(=O)c1ccccc1C2=O [YM155] (first compound 0.02 µM, partner dose 0.0004 µM) | 50.8% | 105% | 120% | 120% | 83.2% | 329% | 93.7% | 95.6% | 82.1% | 104% | 214% | 76.9% | 31.8% | 77.4% | 44.5% | 61% | 49.9% | 99.7% | 169%
9 | O=c1[nH]nc(Sc2ncc([N+](=O)[O-])s2)n1-c1ccc2c(c1)OCCO2 + CC(=O)c1c(C)c2cnc(Nc3ccc(N4CCNCC4)cn3)nc2n(C2CCCC2)c1=O [palbociclib] (first compound 0.2 µM, partner dose 0.04 µM) | 74.4% | 55.3% | 47.6% | 93.8% | 173% | 68.5% | 86.4% | 80.3% | 129% | 35.5% | 41.7% | 131% | 82.3% | 81.1% | 148% | 78.3% | 235% | 33% | 245%
10 | O=C(/C=C/c1cccnc1)NCCCCC1CCN(C(=O)c2ccccc2)CC1 + C=CCNC1=C2C[C@@H](C)C[C@H](OC)[C@H](O)[C@@H](C)/C=C(\C)[C@H](OC(N)=O)[C@@H](OC)/C=C\C=C(/C)C(=O)NC(=CC1=O)C2=O [Tanespimycin] (first compound 0.01 µM, partner dose 0.002 µM) | 94.5% | 198% | 115% | 140% | 183% | 3170% | 113% | 687% | 696% | 609% | 517% | 169% | 166% | 3960% | 382% | 101% | 319% | 296% | 435%
11 | CCCCCCCCCCCCCCCCCCOP(=O)([O-])OC1CC[N+](C)(C)CC1 [Perifosine] + O=C(O)c1ccc2c(c1)nc(Nc1cccc(Cl)c1)c1ccncc12 [CX4945] (first compound 0.4 µM, partner dose 0.4 µM) | 128% | 106% | 238% | 191% | 139% | 64.4% | 205% | 211% | 182% | 142% | 120% | 114% | 95.3% | 116% | 44.8% | 215% | 75.2% | 32.5% | 110%
12 | O=C(/C=C/c1cccnc1)NCCCCC1CCN(C(=O)c2ccccc2)CC1 + CCN(CC)CCNC(=O)c1c(C)[nH]c(/C=C2\C(=O)Nc3ccc(F)cc32)c1C [sunitinib] (first compound 0.01 µM, partner dose 0.4 µM) | 338% | 97.4% | 71% | 147% | 35.7% | 3880% | 107% | 702% | 758% | 2350% | 484% | 468% | 299% | 4050% | 234% | 292% | 313% | 47.8% | 35.2%
13 | Cc1ccc(Nc2nccc(N(C)c3ccc4c(C)n(C)nc4c3)n2)cc1S(N)(=O)=O [Pazopanib] + C=CCNC1=C2C[C@@H](C)C[C@H](OC)[C@H](O)[C@@H](C)/C=C(\C)[C@H](OC(N)=O)[C@@H](OC)/C=C\C=C(/C)C(=O)NC(=CC1=O)C2=O [Tanespimycin] (first compound 0.4 µM, partner dose 0.002 µM) | 152% | 110% | 99.2% | 198% | 83.7% | 56.2% | 129% | 150% | 198% | 142% | 115% | 66.3% | 108% | 123% | 210% | 84.1% | 127% | 94.6% | 83%
14 | Cc1cc(Nc2cc(N3CCN(C)CC3)nc(Sc3ccc(NC(=O)C4CC4)cc3)n2)n[nH]1 [Tozasertib] + O=c1[nH]nc(Sc2ncc([N+](=O)[O-])s2)n1-c1ccc2c(c1)OCCO2 [BI78D3] (first compound 0.006 µM, partner dose 0.2 µM) | 67.5% | 270% | 128% | 134% | 179% | 63.4% | 85.4% | 180% | 96.8% | 59% | 148% | 90.3% | 57.4% | 200% | 240% | 31.7% | 91.4% | 215% | 45.8%
15 | Cc1cc(Nc2cc(N3CCN(C)CC3)nc(Sc3ccc(NC(=O)C4CC4)cc3)n2)n[nH]1 [Tozasertib] + C[C@@H](N)c1ccc(C(=O)Nc2ccnc3[nH]ccc23)cc1 [RKI983] (first compound 0.006 µM, partner dose 0.4 µM) | 45.7% | 91.8% | 115% | 154% | 104% | 43.6% | 123% | 167% | 79.4% | 207% | 145% | 83.1% | 154% | 111% | 81.8% | 122% | 18.7% | 120% | 71.5%

Shown as tab-separated lines: part of the list above.
Row	SMILES	cleaved PARP positive nuclei fraction [1]	cleaved PARP positive nuclei fraction [2]	cleaved PARP positive nuclei fraction [3]	cleaved PARP positive nuclei fraction [4]	cleaved PARP positive nuclei fraction [5]	cleaved PARP positive nuclei fraction [6]	cleaved PARP positive nuclei fraction [7]	cleaved PARP positive nuclei fraction [8]	cleaved PARP positive nuclei fraction [9]	cleaved PARP positive nuclei fraction [10]	cleaved PARP positive nuclei fraction [11]	cleaved PARP positive nuclei fraction [12]	cleaved PARP positive nuclei fraction [13]	cleaved PARP positive nuclei fraction [14]	cleaved PARP positive nuclei fraction [15]	cleaved PARP positive nuclei fraction [16]	cleaved PARP positive nuclei fraction [17]	cleaved PARP positive nuclei fraction [18]	cleaved PARP positive nuclei fraction [19]
3	Cc1ccc(Nc2nccc(N(C)c3ccc4c(C)n(C)nc4c3)n2)cc1S(N)(=O)=O [Pazopanib] + Nc1cccc2c1CN(C1CCC(=O)NC1=O)C2=O [lenalidomide] (first compound 0.4 µM, partner dose 1 µM)	69.1%	95.5%	98.4%	177%	37.1%	87.3%	123%	388%	71.9%	34.6%	91.1%	71.2%	127%	97.8%	105%	56.9%	115%	272%	80.7%
4	O=C(/C=C/c1cccnc1)NCCCCC1CCN(C(=O)c2ccccc2)CC1 + CC(C)C[C@H](NC(=O)[C@H](Cc1ccccc1)NC(=O)c1cnccn1)B(O)O [Bortezomib] (first compound 0.01 µM, partner dose 0.001 µM)	108%	111%	102%	187%	85.4%	2130%	122%	487%	444%	693%	504%	270%	327%	5370%	577%	131%	212%	110%	276%

Source: the supplement of paper PMC4604168 (melanoma cell lines)
